No constants are given. Whether binding was seen depends on the method and setting. In cells and extracts the contact can be indirect. Some entries that bind do so weakly or less than the wild type. Where a sequence is shown, tags or fusion partners need not be part of it.
How the values were obtained:
[1] = molecular target: T1, Gph1 (Saccharomyces cerevisiae) (UniProt P06738); experiment: anti-FLAG co-IP, LC-MS/MS
T1 sequence (looked up): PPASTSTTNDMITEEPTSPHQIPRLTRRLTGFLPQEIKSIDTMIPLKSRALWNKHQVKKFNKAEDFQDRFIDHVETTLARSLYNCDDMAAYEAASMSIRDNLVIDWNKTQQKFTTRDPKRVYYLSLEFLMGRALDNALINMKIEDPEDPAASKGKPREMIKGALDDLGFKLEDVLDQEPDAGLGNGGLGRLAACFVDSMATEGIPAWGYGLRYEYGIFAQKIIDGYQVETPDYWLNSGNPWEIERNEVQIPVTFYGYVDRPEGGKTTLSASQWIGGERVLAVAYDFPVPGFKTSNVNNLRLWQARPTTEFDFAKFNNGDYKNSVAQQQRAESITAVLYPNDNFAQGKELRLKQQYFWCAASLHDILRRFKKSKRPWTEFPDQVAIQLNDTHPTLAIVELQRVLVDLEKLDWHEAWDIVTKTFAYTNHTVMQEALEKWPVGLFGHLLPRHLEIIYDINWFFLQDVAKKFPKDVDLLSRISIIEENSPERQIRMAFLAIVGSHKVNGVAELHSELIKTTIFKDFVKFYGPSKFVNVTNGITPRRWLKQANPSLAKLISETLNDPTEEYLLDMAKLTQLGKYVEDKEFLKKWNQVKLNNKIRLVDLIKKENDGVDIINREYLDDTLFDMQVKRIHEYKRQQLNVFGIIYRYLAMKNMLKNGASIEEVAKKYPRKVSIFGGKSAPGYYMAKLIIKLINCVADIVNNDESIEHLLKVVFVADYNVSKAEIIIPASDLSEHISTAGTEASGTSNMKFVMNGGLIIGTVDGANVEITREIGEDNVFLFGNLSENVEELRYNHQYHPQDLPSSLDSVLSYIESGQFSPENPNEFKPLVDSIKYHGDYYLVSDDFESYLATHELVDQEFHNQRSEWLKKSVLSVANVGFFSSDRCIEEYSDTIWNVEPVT

Protein sequences, listed by entry. Tags and fused reporters are not part of them.
UniProt P32598: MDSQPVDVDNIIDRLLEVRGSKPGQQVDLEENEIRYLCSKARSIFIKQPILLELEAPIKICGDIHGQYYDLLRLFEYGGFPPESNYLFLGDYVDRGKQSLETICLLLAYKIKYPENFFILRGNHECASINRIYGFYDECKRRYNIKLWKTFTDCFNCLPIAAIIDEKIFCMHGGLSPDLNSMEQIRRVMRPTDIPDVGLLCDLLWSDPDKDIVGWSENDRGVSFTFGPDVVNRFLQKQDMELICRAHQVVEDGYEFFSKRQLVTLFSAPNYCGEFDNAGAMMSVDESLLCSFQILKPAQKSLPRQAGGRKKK

[2] = molecular target: T2, Reg1 (Saccharomyces cerevisiae) (UniProt Q00816); experiment: anti-FLAG co-IP, LC-MS/MS
T2 sequence (looked up): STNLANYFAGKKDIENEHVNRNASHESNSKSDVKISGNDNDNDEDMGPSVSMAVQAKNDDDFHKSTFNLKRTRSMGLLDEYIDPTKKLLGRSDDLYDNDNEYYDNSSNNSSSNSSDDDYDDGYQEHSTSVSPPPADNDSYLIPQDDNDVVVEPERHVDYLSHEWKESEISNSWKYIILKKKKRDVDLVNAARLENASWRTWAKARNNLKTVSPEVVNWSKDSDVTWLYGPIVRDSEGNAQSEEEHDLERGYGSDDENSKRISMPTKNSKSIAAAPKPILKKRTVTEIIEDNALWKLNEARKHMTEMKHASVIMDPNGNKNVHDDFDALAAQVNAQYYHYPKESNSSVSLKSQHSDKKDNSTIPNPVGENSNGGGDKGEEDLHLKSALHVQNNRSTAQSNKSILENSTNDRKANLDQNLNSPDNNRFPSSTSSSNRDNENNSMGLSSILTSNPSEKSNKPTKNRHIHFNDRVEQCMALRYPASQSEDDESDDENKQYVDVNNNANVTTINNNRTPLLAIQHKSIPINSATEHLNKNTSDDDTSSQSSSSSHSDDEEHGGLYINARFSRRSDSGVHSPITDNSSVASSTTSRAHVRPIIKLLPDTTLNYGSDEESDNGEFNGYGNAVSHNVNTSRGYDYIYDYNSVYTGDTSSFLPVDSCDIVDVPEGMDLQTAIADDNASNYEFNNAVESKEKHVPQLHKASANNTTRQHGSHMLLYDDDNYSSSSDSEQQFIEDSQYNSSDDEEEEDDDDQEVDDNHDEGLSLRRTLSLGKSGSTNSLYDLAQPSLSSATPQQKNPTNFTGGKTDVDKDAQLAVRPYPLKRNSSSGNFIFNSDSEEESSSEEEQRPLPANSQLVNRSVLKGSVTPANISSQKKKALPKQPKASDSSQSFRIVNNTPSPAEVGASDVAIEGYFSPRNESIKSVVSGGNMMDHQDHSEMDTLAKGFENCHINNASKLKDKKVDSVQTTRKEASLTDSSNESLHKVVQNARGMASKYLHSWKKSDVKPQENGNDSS

[3] = molecular target: T3, Gip2 (Saccharomyces cerevisiae) (UniProt P40036); experiment: anti-FLAG co-IP, LC-MS/MS; bait Gip2 by Table 2
T3 sequence (looked up): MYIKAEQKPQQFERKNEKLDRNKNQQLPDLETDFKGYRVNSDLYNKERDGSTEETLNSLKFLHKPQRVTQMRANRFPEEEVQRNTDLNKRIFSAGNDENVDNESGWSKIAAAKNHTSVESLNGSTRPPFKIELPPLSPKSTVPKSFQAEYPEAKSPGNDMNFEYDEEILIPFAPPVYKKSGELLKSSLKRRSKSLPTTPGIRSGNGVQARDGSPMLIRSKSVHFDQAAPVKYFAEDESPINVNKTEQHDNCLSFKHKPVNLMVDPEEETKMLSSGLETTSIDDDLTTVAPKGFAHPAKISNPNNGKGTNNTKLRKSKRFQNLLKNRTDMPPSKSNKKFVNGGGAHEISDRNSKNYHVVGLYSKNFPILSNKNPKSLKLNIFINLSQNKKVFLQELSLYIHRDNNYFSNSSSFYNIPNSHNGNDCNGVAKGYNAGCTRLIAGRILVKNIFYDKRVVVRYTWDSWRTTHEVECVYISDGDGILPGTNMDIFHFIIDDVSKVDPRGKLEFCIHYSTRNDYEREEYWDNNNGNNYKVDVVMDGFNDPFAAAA

[4] = molecular target: T4, Cdc14 (Saccharomyces cerevisiae) (UniProt Q00684); experiment: anti-FLAG co-IP, LC-MS/MS; bait Cdc14 by Table 2
T4 sequence (looked up): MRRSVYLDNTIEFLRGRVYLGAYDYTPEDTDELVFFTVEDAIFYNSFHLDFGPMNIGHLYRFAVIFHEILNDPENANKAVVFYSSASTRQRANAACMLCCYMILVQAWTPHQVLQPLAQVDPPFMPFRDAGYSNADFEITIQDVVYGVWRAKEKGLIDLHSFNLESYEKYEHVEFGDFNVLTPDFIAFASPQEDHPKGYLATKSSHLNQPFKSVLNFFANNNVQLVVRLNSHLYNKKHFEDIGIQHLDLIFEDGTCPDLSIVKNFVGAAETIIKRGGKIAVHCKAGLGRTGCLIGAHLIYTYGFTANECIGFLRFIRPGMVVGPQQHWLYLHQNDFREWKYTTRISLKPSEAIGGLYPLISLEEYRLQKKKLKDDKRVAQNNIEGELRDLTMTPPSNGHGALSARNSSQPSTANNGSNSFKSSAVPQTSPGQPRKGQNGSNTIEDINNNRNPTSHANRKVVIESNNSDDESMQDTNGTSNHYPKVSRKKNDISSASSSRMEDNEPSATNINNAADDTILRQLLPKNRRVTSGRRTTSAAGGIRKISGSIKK

Measured: binding

Glc7 (from UniProt P32598 1-312)
binds: [1] | [2] | [3] | [4]

— US20030162221A1
